According to patent US20170217982A1, “Compound isolated from Pseudolysimachion rotundum var. subintegrum, the composition comprising the same for treating allergic disease, inflammatory disease, asthma or chronic obstructive pulmonary disease and the use thereof” (YUNGJIN PHARMACEUTICAL CO., LTD, priority 2014, published 2017):
For at least one compound, name, drawing or mass did not settle the structure.

Test system: asthma-induced animal model (OVA)
Assay: Anti-asthma activity in OVA-sensitized/challenged mouse model
Assay type: in vivo, BALB/c mice
Conditions: OVA asthma mice, 30 mg/kg PO
Experimental: In order to determine the anti-asthma activity of test sample in asthma-induced animal model, following test was performed by the method disclosed in the literature (Shin, I. S. et al., Food Chem. Toxicol., 2013, 62, 506-513)
Specific pathogen-free female BALB/c mice (about 20 g), aged 6 weeks, which were routinely screened serologically for relevant respiratory pathogens, were purchased from Samtako Co. (Seoul, Korea) and acclimated with the experimental environment under the condition controlling the temperature of 22±2° C., and relative humidity of 55±15%, at light/dark cycle for 1 week prior to experiment.
Briefly, mice were sensitized by intraperitoneal injection of 20 μg OVA (Ovalbumin; A5503, Sigma, St. Louis, Mo.), which was emulsified in 2 mg aluminum hydroxide (A8222, Sigma-Aldrich, MO. USA) in 200 μl of PBS buffer (pH 7.4), biweekly. The mice were challenged through the airways with OVA (1% in PBS) for 30 min using an ultrasonic nebulizer (NE-U12; Omron Corp., Tokyo, Japan) from the 21st day to 23rd day after the initial sensitization. 24 hrs after the antigen treatment, the airway hyperresponsiveness was determined and the mice were sacrificed 48 hrs after the last challenge. The mice were sacrificed with an overdose of pentobarbital (50 mg/kg, Entobal®, Hanil, Korea) 48 h after the last challenge, and a tracheotomy was performed. After 1.4 ml of physiological saline solution (PBS) was instilled into the lungs, bronchoalveolar lavage fluid (BALF) was obtained by aspiration three times via tracheal cannulation. […]
All the result obtained from various experiments was recorded as mean±SD (standard deviation), and the comparison between each group was determined using by one-way ANOVA test using by SPSS 10.0 program. The statistic significance between each group was determined according to Dunnett's multiple comparison tests as a post-hoc test). The result was expressed as P values: <0.05 (*) as statistically significant. […]
BALF was loaded onto a slide and centrifuged to fix the cells onto the slide using a Cellspin machine (Cyto12.5+clip5, Hanil Science Industrial, Korea). The cells were stained by Diff-Quick® Stain reagents (Sysmex, Cat No. 38721, Switzerland) according to the manufacturer's instructions and the number of inflammatory cells in each sample was counted by microscope (×400).
In order to confirm the inhibition effect of test samples on the level of Th2 cytokines (IL-4, IL-5 and IL-13) in bronchoalveolar lavage fluid (BALF), the level of Th2 cytokines (IL-4, IL-5 and IL-13) in bronchoalveolar lavage fluid (BALF) was determined using by ELISA kit (VersaMax, Molecular Devices, USA) specifically reacting with each cytokine according to the manufacture's manual. […]

CC(C)(O)c1ccccc1CC[C@@H](SCC1(CC(=O)O)CC1)c1cccc(/C=C/c2ccc3ccc(Cl)cc3n2)c1 [Montelukast, montelukast, reference compound]
significantly reduced: level of Th2 cytokines (IL-4, IL-5 and IL-13) in BALF (ELISA, vs OVA group (FIG. 6)) | level of IgE and OVA-specific IgE in blood serum (ELISA, vs OVA group (FIG. 7)) | invasion of the inflamed cells in lung tissue (H&E histology) (vs OVA group (FIG. 8)) | mucosal secretion from the goblet cell of bronchial epithelial cells in lung tissue (PAS) (vs OVA group (FIG. 9))
